Results taken from PubChem BioAssay AID588590 (National Center for Advancing Translational Sciences (NCATS), 2011).
The campaign covered roughly 390,000 compounds. About 4,000 (1%) were called active. Inconclusive results, whose numbers are uncertain, are shown with a selection of clear calls. Calls come from the whole dose curve; as a rule, active = well fitted inhibition curve with a large enough effect; inconclusive = small, poorly fitted or top-dose-only effect, or another doubt; inactive = no such curve, though single readings can be large or run the other way. Potencies of inconclusive entries are doubtful fits and often do not repeat.

Sequences of proteins named here, by UniProt entry; tags and fusion partners are left off. A change or cut given only in a name is not applied to a line headed by its entry.
UniProt Q9UNA4: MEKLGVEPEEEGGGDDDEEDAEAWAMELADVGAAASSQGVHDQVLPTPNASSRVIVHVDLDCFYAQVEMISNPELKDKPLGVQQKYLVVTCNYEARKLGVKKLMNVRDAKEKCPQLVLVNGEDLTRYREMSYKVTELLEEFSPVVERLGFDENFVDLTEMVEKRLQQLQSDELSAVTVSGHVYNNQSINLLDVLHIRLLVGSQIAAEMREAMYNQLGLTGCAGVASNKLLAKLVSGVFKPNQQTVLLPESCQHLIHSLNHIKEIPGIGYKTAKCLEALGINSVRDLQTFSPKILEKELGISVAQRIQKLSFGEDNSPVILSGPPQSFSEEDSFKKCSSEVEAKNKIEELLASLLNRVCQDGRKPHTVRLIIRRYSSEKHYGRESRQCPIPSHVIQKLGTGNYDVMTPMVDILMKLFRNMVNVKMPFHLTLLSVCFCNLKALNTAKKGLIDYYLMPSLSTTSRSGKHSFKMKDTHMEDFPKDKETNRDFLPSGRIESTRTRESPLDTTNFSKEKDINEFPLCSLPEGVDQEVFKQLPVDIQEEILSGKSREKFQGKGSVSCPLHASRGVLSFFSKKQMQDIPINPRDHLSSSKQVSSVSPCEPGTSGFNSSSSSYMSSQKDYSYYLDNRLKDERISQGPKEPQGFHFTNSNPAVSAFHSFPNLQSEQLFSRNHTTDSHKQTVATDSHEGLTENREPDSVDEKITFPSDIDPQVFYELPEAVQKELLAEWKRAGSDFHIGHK

What follows are compounds tested against DNA polymerase iota (Homo sapiens) (UniProt Q9UNA4) (assay: qHTS for Inhibitors of Polymerase Iota). Settings: Pol iota fluorescent replication assay, 10 min; series mostly up to 115 µM.
Outline: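 Pol iota at 10 nM preincubated 15 min with compounds at room temperature; reaction started with fluorescent substrate, 50 nM final. Fluorescence read kinetically at 0 and 10 min; buffer-only wells as negative control.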
Potency is the fitted concentration of half-maximal effect.

Potency, active:
O=C(NNc1c2ccccc2nc2ccccc12)c1cc2ccccc2cc1O 39.8 µM
Nc1ccc(S(=O)(=O)Nc2nccs2)cc1N=Nc1ccccc1[N+](=O)[O-] 7.08 µM
Cc1cc(NC(=O)C(C)Sc2nnc(NCc3ccco3)s2)no1 (stereo unspecified) 39.8 µM
Cc1cc(C)c2nc(N3C(=O)C(O)=C(C(=O)c4ccco4)C3c3ccco3)sc2c1 (stereo unspecified) 35.5 µM

Potency, inactive:
CCOc1ccc2nc(N3CCCC(C(=O)Nc4ccccc4CC)C3)sc2c1 (stereo unspecified)
Fc1ccc(-c2cc(-c3ccc(F)cc3)c3c(n2)-c2cc(F)ccc2OC3)cc1
CC(CC(=O)Nc1ccc(F)cc1)S(=O)(=O)c1cc2c3c(c1)CCN3C(=O)CC2 (stereo unspecified)
COc1ccc(C(=O)NNC(=O)CSc2nnc(C3CC3)n2C)cc1
COc1cccc(C2C(C(=O)Nc3nc4ccccc4s3)=C(C)NC3=C2C(=O)CC(C)(C)C3)c1OC (stereo unspecified)
CCc1ccc(O)c(N=Cc2ccccc2O)c1
O=C(c1ccco1)N1CCN(c2nc3ccccc3c(=O)n2-c2ccccc2)CC1
Cc1ccc(NC(=O)C(CC(C)C)N2Cc3ccccc3C2=O)cc1F (stereo unspecified)
CCc1cc2c(cc3c(=O)n(CCCC(=O)NCc4cccc(Br)c4)ncn32)s1
CCOc1ccc(NC(=O)COc2ccc(-n3cnnn3)cc2)cc1
N#Cc1ccc(C(=O)NC2CCCCCCC2)cc1
COc1ccccc1N1CCN(c2ccc(=O)n(CC(=O)NCc3ccc(F)cc3)n2)CC1
Cc1ccc(C)c(Nc2nc(NCc3ccco3)nc3nccnc23)c1
CCOc1ccc(CCNC(=O)c2c(C)oc3ncn(CC(C)C)c(=O)c23)cc1OCC
Cc1cc(Br)ccc1NC(=O)CSc1c2c(nc3ccccc13)CCC2
O=C(CSc1nc2ccccc2n1Cc1cccc(F)c1)NCc1ccccc1
CC1CCC(NC(=O)COC(=O)CCC(=O)c2ccc(Cl)s2)CC1 (stereo unspecified)
Cc1ccc(S(=O)(=O)n2nc(OC(=O)c3ccccc3F)cc2N)cc1

Potency, inconclusive:
CCc1ccc(NC(=O)CSc2nc(-c3ccc(C)cc3)nc3c2Cc2c(CO)cnc(C)c2O3)cc1 89.1 µM [inhibitor, single point]
CC(=O)c1ccc(NC(=O)c2ccc(-n3cnnn3)cc2)cc1 39.8 µM [inhibitor, partial curve]
C=CCc1cccc(/C=C/c2cc(=O)c3ccccc3[nH]2)c1O 79.4 µM [inhibitor, partial curve]
COCc1cc(C)nc(SCC(=O)Nc2cc3c(cc2C#N)OCO3)c1C#N 89.1 µM [inhibitor, single point]
C=CCn1c(SCn2nnc3ccccc3c2=O)nc2scc(-c3cccs3)c2c1=O 89.1 µM [inhibitor, single point]
Cc1cccc(N2CCN(c3nnnn3-c3ccccc3)CC2C)c1 (stereo unspecified) 3.98 µM [inhibitor, partial curve, poor fit]
CCCn1c(N2CCN(CC(=O)NCc3cccs3)CC2)nc2ccccc21 20 µM [inhibitor, partial curve, poor fit]
Cc1ccc(C)c(NC(=O)c2nc(S(=O)(=O)Cc3ccc(F)cc3)ncc2Cl)c1 12.6 µM [inhibitor, partial curve, poor fit]
Cc1ccc(/C=C/C(=O)N2CCN(c3ncccn3)CC2)o1 89.1 µM [inhibitor, partial curve, poor fit]
COc1ccc(C(=O)NCC(=O)N/N=C/C(C)=C/c2ccco2)cc1OC 79.4 µM [inhibitor, partial curve]
C/C(=N\NC(=O)c1cc(-c2ccc(Cl)s2)[nH]n1)c1ccncc1 79.4 µM [inhibitor, partial curve]
Cc1ccc(-n2c(=O)[nH]cc(C(=O)Nc3ccc4c(c3)OCO4)c2=O)cc1C 7.94 µM [inhibitor, full curve, poor fit]
CC(=O)N1c2ccc(S(=O)(=O)Nc3ccc(C)c(Cl)c3)cc2CC1C (stereo unspecified) 89.1 µM [inhibitor, partial curve, poor fit]
COc1ccc(N2CCN(S(=O)(=O)c3ccc(-c4coc(C)n4)cc3)CC2)cc1 89.1 µM [inhibitor, single point]
Clc1ccc(-c2nc(-c3cc4cc(Cl)ccc4o3)cs2)cc1 20 µM [inhibitor, partial curve, poor fit]
CCN(C1CCCCC1)S(=O)(=O)c1cc2c3c(c1)CCN3C(=O)CC2 50.1 µM [inhibitor, partial curve, poor fit]
O=C(CSc1nc2ccc(Cl)cc2[nH]1)NC1CCCC1 35.5 µM [inhibitor, partial curve]
O=C(CN1CCC(n2nnc3cc(C(F)(F)F)ccc32)CC1)N1CCc2ccccc21 63.1 µM [inhibitor, partial curve, poor fit]
NC(=O)C1=C[C@@H](c2csc3ccccc23)C[C@@H](OCc2ccc(CO)cc2)O1 35.5 µM [inhibitor, partial curve, poor fit]
Nc1c(/C=C2/C=CC(=O)C(O)=C2)c(=O)nc2sc(CC(=O)N3CCCCC3)nn12 0.708 µM [inhibitor, full curve, poor fit]
CCOC(=O)c1ccc(NC(=O)CCc2ccc(CC)o2)cc1 31.6 µM [inhibitor, partial curve, poor fit]
CC1CC(C)CN(CC(C)(C)NS(=O)(=O)c2ccc(Cl)cc2)C1 (stereo unspecified) 44.7 µM [inhibitor, single point]
O=C(OCc1cc(=O)n2nc(-c3cccs3)sc2n1)c1ccccc1Cl 89.1 µM [inhibitor, single point]
COc1cccc(CSc2nc3n(n2)C(c2ccc(C(=O)O)cc2)C(C(=O)Nc2ccccc2)=C(C)N3)c1 (stereo unspecified) 89.1 µM [inhibitor, single point]
COc1cccc(C(=O)N2CCN(S(=O)(=O)Cc3ccccc3)CC2)c1 89.1 µM [inhibitor, single point]
O=C(Nc1nnc(/N=C/c2ccco2)s1)c1ccc(F)cc1 35.5 µM [inhibitor, single point]
COc1ccc(NC(=O)COc2coc(CN3CCCc4ccccc43)cc2=O)cc1 14.1 µM [inhibitor, partial curve, poor fit]
CC1CCc2nc(-c3cc4c(ccc5ccccc54)oc3=O)sc2C1 (stereo unspecified) 100 µM [inhibitor, partial curve, poor fit]
O=C(NC1CCCCC1)N1CCc2ccccc2C1 100 µM [inhibitor, single point]
Cc1ccc(Oc2coc3cc(OC(=O)c4cccs4)ccc3c2=O)cc1 14.1 µM [inhibitor, partial curve, poor fit]
COc1ccc(Oc2ncnc3c2oc2ccc(Br)cc23)cc1 70.8 µM [inhibitor, single point]
CCC(Sc1ncnc2sc(C)c(C)c12)C(=O)OC (stereo unspecified) 44.7 µM [inhibitor, partial curve, poor fit]
Cc1c(-c2ccco2)[n+](=O)c2c(n1[O-])CCC2 0.708 µM [inhibitor, full curve, poor fit]
CC1=C(C#N)C(=O)NC(=O)/C1=C/c1ccc(-c2ccc(S(N)(=O)=O)cc2)o1 31.6 µM [inhibitor, single point]
CC(=O)Nc1ccc(S(=O)(=O)N(C)c2ccc(OCCOc3ccccc3F)cc2)cc1 17.8 µM [inhibitor, partial curve, poor fit]
CC[n+]1c(/C=C2\Sc3ccccc3N2C)ccc2cccc(C)c21 15.8 µM [inhibitor, partial curve, poor fit]
O=C(O)CCc1ccc(-c2cccs2)n1NC(=O)c1ccc(Cl)cc1Cl 17.8 µM [inhibitor, single point]
O=C(CN1C(=O)NC2(CCCCCCC2)C1=O)N1CCN(C(=O)c2ccco2)CC1 56.2 µM [inhibitor, partial curve, poor fit]
O=c1oc2ccccc2cc1-c1nc(-c2ccccc2)no1 20 µM [inhibitor, partial curve, poor fit]
COc1ccc(S(=O)(=O)Nc2cc(C(=O)NCCCOC(C)C)ccc2N2CCOCC2)cc1 25.1 µM [inhibitor, single point]
Cc1nnc(NC(=O)c2ccc3nccnc3c2)s1 25.1 µM [inhibitor, full curve]
Nc1ccc(N2CCN(C(=O)c3cccs3)CC2)cc1 15.8 µM [inhibitor, partial curve, poor fit]
CC(=O)c1cccc(OCc2cc(C(=O)N3C[C@H]4CC[C@H]3C4)no2)c1 22.4 µM [inhibitor, single point]
COc1ccc(S(=O)(=O)NCc2nc(-c3ccccc3)no2)cc1 89.1 µM [inhibitor, single point]

Reprinted from the listing (twelve entries):
Potency, inconclusive:
COCc1cc(C)nc(SCC(=O)Nc2cc3c(cc2C#N)OCO3)c1C#N 89.1 µM [inhibitor, single point]
C=CCn1c(SCn2nnc3ccccc3c2=O)nc2scc(-c3cccs3)c2c1=O 89.1 µM [inhibitor, single point]
Cc1cccc(N2CCN(c3nnnn3-c3ccccc3)CC2C)c1 (stereo unspecified) 3.98 µM [inhibitor, partial curve, poor fit]
CCCn1c(N2CCN(CC(=O)NCc3cccs3)CC2)nc2ccccc21 20 µM [inhibitor, partial curve, poor fit]
Cc1ccc(C)c(NC(=O)c2nc(S(=O)(=O)Cc3ccc(F)cc3)ncc2Cl)c1 12.6 µM [inhibitor, partial curve, poor fit]
Cc1ccc(/C=C/C(=O)N2CCN(c3ncccn3)CC2)o1 89.1 µM [inhibitor, partial curve, poor fit]
COc1ccc(C(=O)NCC(=O)N/N=C/C(C)=C/c2ccco2)cc1OC 79.4 µM [inhibitor, partial curve]
C/C(=N\NC(=O)c1cc(-c2ccc(Cl)s2)[nH]n1)c1ccncc1 79.4 µM [inhibitor, partial curve]
Cc1ccc(-n2c(=O)[nH]cc(C(=O)Nc3ccc4c(c3)OCO4)c2=O)cc1C 7.94 µM [inhibitor, full curve, poor fit]
CC(=O)N1c2ccc(S(=O)(=O)Nc3ccc(C)c(Cl)c3)cc2CC1C (stereo unspecified) 89.1 µM [inhibitor, partial curve, poor fit]
COc1ccc(N2CCN(S(=O)(=O)c3ccc(-c4coc(C)n4)cc3)CC2)cc1 89.1 µM [inhibitor, single point]
Clc1ccc(-c2nc(-c3cc4cc(Cl)ccc4o3)cs2)cc1 20 µM [inhibitor, partial curve, poor fit]
